## Results of single-concentration screens

Chains of the proteins cited; added tags and fusions are not shown. Residues count along the entry.
UniProt P9WFT3, whole entry: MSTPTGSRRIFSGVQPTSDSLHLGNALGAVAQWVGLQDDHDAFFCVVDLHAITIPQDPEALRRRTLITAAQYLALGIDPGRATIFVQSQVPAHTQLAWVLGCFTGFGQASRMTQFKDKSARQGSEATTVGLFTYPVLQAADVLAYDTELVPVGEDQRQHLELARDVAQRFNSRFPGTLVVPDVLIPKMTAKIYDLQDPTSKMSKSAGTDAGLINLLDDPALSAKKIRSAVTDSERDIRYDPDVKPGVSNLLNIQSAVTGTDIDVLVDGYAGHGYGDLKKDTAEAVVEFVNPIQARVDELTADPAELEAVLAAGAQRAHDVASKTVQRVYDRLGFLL
UniProt Q4DA54, 1-478: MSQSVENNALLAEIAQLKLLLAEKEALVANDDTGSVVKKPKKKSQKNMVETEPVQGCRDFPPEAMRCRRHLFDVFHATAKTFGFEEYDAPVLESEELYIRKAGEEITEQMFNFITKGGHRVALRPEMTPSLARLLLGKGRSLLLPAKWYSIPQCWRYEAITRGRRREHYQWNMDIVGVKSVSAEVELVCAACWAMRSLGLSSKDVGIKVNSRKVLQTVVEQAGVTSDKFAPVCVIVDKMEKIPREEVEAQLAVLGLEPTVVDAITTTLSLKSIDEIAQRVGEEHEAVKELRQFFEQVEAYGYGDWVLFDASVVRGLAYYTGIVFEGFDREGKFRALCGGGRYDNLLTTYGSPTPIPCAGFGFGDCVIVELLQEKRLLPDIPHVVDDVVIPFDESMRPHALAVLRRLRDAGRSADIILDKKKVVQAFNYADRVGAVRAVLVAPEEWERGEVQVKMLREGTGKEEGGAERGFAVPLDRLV
UniProt Q8IDJ8, 1-583: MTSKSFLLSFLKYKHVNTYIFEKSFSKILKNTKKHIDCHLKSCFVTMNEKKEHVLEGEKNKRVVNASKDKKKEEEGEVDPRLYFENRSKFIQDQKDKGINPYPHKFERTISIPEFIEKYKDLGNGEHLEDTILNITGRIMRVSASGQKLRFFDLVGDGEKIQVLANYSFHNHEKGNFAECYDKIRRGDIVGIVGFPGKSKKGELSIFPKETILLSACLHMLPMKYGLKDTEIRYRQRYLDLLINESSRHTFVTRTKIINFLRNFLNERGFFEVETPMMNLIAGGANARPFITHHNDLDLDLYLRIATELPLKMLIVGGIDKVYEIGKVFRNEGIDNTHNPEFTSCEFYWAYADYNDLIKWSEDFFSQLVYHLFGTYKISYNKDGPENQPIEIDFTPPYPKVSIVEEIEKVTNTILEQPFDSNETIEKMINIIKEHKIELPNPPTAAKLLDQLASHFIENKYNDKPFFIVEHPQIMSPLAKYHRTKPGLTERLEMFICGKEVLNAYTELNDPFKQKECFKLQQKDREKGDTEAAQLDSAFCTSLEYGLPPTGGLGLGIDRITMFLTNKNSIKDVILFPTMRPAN
UniProt P9WNZ1, whole entry: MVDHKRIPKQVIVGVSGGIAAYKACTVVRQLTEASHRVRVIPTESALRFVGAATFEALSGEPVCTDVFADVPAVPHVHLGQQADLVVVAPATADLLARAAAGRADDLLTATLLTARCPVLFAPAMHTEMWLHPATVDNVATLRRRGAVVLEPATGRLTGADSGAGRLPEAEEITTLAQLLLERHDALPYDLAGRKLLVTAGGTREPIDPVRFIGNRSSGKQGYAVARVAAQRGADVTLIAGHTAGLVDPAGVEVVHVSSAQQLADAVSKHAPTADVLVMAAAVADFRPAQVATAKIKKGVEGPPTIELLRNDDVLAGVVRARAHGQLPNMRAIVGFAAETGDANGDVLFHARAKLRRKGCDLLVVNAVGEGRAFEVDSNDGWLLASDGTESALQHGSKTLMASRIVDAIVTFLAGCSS
UniProt I6X8D2, whole entry: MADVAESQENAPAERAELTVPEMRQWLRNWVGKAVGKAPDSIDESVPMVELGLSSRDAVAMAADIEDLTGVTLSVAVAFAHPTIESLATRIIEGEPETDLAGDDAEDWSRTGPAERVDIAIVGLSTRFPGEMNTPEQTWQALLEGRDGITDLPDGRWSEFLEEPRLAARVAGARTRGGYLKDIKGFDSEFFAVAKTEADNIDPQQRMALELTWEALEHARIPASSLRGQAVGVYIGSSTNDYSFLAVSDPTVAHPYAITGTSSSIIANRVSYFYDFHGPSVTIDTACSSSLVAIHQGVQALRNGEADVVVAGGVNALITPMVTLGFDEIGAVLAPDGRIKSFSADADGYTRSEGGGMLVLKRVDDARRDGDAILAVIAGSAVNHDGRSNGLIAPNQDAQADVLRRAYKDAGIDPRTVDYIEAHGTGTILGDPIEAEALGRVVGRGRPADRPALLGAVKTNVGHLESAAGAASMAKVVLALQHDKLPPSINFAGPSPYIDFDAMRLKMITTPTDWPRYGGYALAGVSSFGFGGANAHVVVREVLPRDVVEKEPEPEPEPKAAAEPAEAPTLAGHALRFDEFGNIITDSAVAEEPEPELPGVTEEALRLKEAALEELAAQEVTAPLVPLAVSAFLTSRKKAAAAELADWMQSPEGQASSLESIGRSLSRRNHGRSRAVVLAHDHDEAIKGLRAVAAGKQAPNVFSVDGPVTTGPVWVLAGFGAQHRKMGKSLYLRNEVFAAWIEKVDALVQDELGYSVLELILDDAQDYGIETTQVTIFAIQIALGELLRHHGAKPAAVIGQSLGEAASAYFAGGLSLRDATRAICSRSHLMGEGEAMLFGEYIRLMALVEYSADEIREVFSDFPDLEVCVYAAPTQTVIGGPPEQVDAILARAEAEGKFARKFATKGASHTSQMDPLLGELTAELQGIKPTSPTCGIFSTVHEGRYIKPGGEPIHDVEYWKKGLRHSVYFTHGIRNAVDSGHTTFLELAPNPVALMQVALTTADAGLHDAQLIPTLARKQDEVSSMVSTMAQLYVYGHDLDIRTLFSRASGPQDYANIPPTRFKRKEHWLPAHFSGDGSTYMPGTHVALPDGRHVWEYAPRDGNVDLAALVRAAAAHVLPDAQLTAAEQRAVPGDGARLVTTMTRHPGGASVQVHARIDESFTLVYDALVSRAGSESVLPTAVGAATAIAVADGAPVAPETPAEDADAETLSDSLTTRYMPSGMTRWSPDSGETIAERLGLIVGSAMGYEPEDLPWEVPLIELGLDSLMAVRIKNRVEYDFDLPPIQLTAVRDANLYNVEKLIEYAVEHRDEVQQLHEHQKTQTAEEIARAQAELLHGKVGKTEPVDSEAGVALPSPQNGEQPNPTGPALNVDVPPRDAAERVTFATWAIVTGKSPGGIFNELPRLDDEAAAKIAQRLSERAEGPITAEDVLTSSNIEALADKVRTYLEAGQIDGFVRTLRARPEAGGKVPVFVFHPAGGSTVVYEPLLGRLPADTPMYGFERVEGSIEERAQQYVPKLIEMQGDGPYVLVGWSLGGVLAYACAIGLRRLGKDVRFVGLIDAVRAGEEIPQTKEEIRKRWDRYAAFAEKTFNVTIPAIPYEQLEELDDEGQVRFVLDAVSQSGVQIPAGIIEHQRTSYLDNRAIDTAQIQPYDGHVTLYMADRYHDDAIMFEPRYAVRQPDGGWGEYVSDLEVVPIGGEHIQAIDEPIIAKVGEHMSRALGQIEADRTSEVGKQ

MtTrpRS: 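Enzyme assay of tryptophanyl-tRNA synthetase; the read-out is not stated. Target: Tryptophan-tRNA ligase, Mycobacterium tuberculosis (UniProt P9WFT3). Tested at 10 µM. Direction is not recorded; retested compounds ran higher, which suggests that high means inhibition. Of about 65,000 compounds tested this way, about 64 (0.098%) reached 50% or more in at least one test.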
TcHisRS: 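Enzyme assay of histidyl-tRNA synthetase; the read-out is not stated. Target: Histidine-tRNA ligase, Trypanosoma cruzi CL Brener (UniProt Q4DA54). Tested at 30 µM. Direction is inferred from retests: higher values go with stronger inhibition. About 69,000 compounds were tested under these conditions; 0.045% (about 31) showed 50% or more at least once.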
PfKRS1: 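Lysine-tRNA ligase, Plasmodium falciparum 3D7 (UniProt Q8IDJ8). Enzyme assay of the cytosolic lysyl-tRNA synthetase in 384-well plates, read by luminescence. Concentration: 30 µM. Higher reads as stronger inhibition, judged from the few compounds that gave an IC50. Of about 69,000 compounds tested this way, about 49 (0.071%) reached 50% or more in at least one test.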
CoaBC: 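Enzyme assay of CoaBC with a phosphate dye (Biomol Green) read at 650 nm. Target: Coenzyme A biosynthesis protein CoaBC, Mycobacterium tuberculosis (UniProt P9WNZ1). Tested at 30 µM. Direction is inferred from only a few compounds that gave an IC50; most scored high, so higher reads as stronger inhibition. Most strong results did not repeat in a second test. About 67,000 compounds were tested under these conditions; 0.06% (about 40) showed 50% or more at least once.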
Pks13 thioesterase: 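Enzyme assay of the thioesterase domain of polyketide synthase 13; the read-out is not stated. Target: Polyketide synthase Pks13, Mycobacterium tuberculosis (UniProt I6X8D2). Tested at 30 µM. Higher reads as stronger inhibition (inferred from which compounds were picked for retests). Of about 67,000 compounds tested this way, about 300 (0.46%) reached 50% or more in at least one test.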
Leishmania in macrophages: 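Cell assay of Leishmania donovani living inside macrophages; the read-out is not stated. Concentration: 30 µM. Direction is inferred from retests: higher values go with stronger inhibition. About 69,000 compounds were tested under these conditions; 1.5% (about 1,000) showed 50% or more at least once.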

Each number is a percent effect as filed. The controls that fix the scale are not given in the record; negative values are as filed. Compounds were drawn at random from those tested, without regard to their results. Two or more numbers in one place are separate tests of the same structure; such repeats can differ widely. A dash means the value is not listed here; it may have been measured.

{"compound": "Cn1cncc1CN1CCC(O)(Cn2nc(-c3cccs3)oc2=O)CC1.O=C(O)CC(O)(CC(=O)O)C(=O)O", "Leishmania in macrophages": 21.37}
{"compound": "[H][C@]12CC[C@]([H])(CN(CC(=O)N(C)C)C1)N(C(=O)CCCn1cncn1)C2", "Leishmania in macrophages": 3.091}
{"compound": "CN(Cc1cc(Br)cn1C)C(=O)Cc1cccnc1", "MtTrpRS": -0.08223, "TcHisRS": 6.173, "PfKRS1": 9.331, "CoaBC": 6.748, "Pks13 thioesterase": -6.666, "Leishmania in macrophages": 16.25}
{"compound": "CN(C)c1ccc(-c2cccc(-c3ccn(CCCO)n3)c2)nn1", "MtTrpRS": 1.296, "TcHisRS": 8.911, "PfKRS1": -1.591, "CoaBC": 3.883, "Pks13 thioesterase": -10.57, "Leishmania in macrophages": 2.06}
{"compound": "O=C1COC2(COCCN(Cc3ccsc3)C2)CN1c1ccc(F)cc1", "stereo": "configuration not stated", "MtTrpRS": -0.4794, "TcHisRS": 3.825, "PfKRS1": -2.66, "CoaBC": -0.1287, "Pks13 thioesterase": -3.934}
{"compound": "COCc1nc(C(=O)N2CCCC(n3ccnc3C)C2)cs1", "stereo": "configuration not stated", "MtTrpRS": 1.885, "TcHisRS": 5.143, "PfKRS1": 1.48, "CoaBC": 1.912, "Pks13 thioesterase": -15.97, "Leishmania in macrophages": 25.83}
{"compound": "Cc1ccc(N2C[C@H]3CCC[C@@H](CN(C)C)[C@H]3C2)nn1", "MtTrpRS": -2.891, "TcHisRS": 3.743, "PfKRS1": 0.8812, "CoaBC": -0.4167, "Pks13 thioesterase": -24.53}
{"compound": "Cn1ccnc1CN1CCN(Cc2cc(C#N)ccc2F)CC1", "MtTrpRS": -2.43, "TcHisRS": 1.149, "PfKRS1": 5.904, "CoaBC": 3.373, "Pks13 thioesterase": -3.219, "Leishmania in macrophages": 33.34}
{"compound": "c1ccn(Cc2nnc3n2CCCN(c2cnccn2)C3)c1", "TcHisRS": 14.44, "PfKRS1": 1.525, "CoaBC": -0.4878, "Pks13 thioesterase": -30.99, "Leishmania in macrophages": -3.113}
{"compound": "Cc1ccc(S(=O)(=O)N(C)Cc2cnccn2)cc1N(C)C", "MtTrpRS": -1.906, "TcHisRS": -5.172, "PfKRS1": 4.977, "CoaBC": 7.937, "Pks13 thioesterase": -2.743, "Leishmania in macrophages": 26.38}
{"compound": "Cl.FC(F)CNc1cnc(C2CCCN2)cn1", "stereo": "configuration not stated", "Leishmania in macrophages": -13.61}
{"compound": "N#Cc1ccc(F)c(CN2CCCC2Cn2cccn2)c1", "stereo": "configuration not stated", "MtTrpRS": -1.458, "TcHisRS": 1.916, "PfKRS1": -0.8221, "CoaBC": 7.757, "Leishmania in macrophages": 17.17}
{"compound": "Cn1ccc(C(=O)NC2CCC23CCN(C(=O)c2ccncc2)CC3)c1", "stereo": "configuration not stated", "MtTrpRS": -1.234, "TcHisRS": 5.785, "PfKRS1": -3.35, "CoaBC": 8.817, "Pks13 thioesterase": -1.226}
{"compound": "O=S(=O)(NCCNc1cc(-n2cccn2)ncn1)c1cccs1", "MtTrpRS": 1.14, "TcHisRS": 5.155, "PfKRS1": 7.481, "CoaBC": -4.44, "Pks13 thioesterase": 1.022, "Leishmania in macrophages": "1.808 & -1.763"}
{"compound": "CC(C(=O)N(C)C)N1CCc2onc(-c3cccc(F)c3)c2C1", "stereo": "configuration not stated", "MtTrpRS": 4.152, "TcHisRS": 1.786, "PfKRS1": 6.71, "CoaBC": -2.071, "Pks13 thioesterase": 3.19, "Leishmania in macrophages": 13.17}
{"compound": "[H][C@@]12CS(=O)(=O)C[C@]1([H])N(CCCOc1ccccc1)CCN2CC=C(C)C", "Leishmania in macrophages": 27.94}
{"compound": "Cc1nn(C)cc1CN1CCCC(n2c(=O)oc3ccc(Cl)cc32)C1", "stereo": "configuration not stated", "MtTrpRS": 28.47, "TcHisRS": 2.273, "PfKRS1": -3.486, "CoaBC": 6.57, "Leishmania in macrophages": 30.3}
{"compound": "CN(Cc1ccccc1)C(=O)CN1CCCC(Cn2cncn2)C1", "stereo": "configuration not stated", "MtTrpRS": 5.076, "TcHisRS": 10.86, "PfKRS1": -0.1383, "CoaBC": 1.673, "Pks13 thioesterase": -10.28, "Leishmania in macrophages": 15.64}
{"compound": "COc1ccc(C2(c3nc(-c4cccnc4)no3)CCOCC2)cc1", "MtTrpRS": 10.92, "TcHisRS": 1.587, "PfKRS1": -0.5389, "CoaBC": 3.099, "Pks13 thioesterase": -26.24, "Leishmania in macrophages": -16.35}
{"compound": "CC(C)NC(=O)N1CC[C@H]2[C@H]1CCN2c1ncccn1", "MtTrpRS": -5.669, "TcHisRS": 4.854, "PfKRS1": 6.967, "CoaBC": 4.505}
{"compound": "O=C(O)C(F)(F)F.O=C(O)C(F)(F)F.[H][C@@]12CN(C(=O)c3ccccn3)C[C@]1([H])OCCN2C(C)C", "Leishmania in macrophages": 4.735}

Repeated from the top, 2 entries:

Compound	MtTrpRS	TcHisRS	PfKRS1	CoaBC	Pks13 thioesterase	Leishmania in macrophages
Cn1cncc1CN1CCC(O)(Cn2nc(-c3cccs3)oc2=O)CC1.O=C(O)CC(O)(CC(=O)O)C(=O)O	-	-	-	-	-	21.37
[H][C@]12CC[C@]([H])(CN(CC(=O)N(C)C)C1)N(C(=O)CCCn1cncn1)C2	-	-	-	-	-	3.091

The values are deposited in ChEMBL (CHEMBL3988442, “University of Dundee, Small-Polar-MMV Screening Library” (2021)).